# Test results reported in the supplement of paper PMC7024190.
# Some of the results follow. Single values are uncertain here, since repeats match poorly.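 The cells were human embryonic kidney cells carrying a Renilla luciferase gene, driven by the HSV-TK promoter, on a plasmid put in briefly by transfection. This is the first-round screen of about ten thousand compounds, looking for ones that raise reporter output.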
# Tested on: HEK 293FT
# Experiment: log relative Renilla luciferase luminescence (reporter expression vs reference, reference not stated) (log (base not stated)); higher = higher recombinant reporter expression
# Conditions: 10 µM; time after transfection 48 h
# Experimental: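 HEK 293FT cells transiently transfected with pRL-TK (Renilla luciferase) were treated with compounds at 10 uM and luminescence was read about 42 h later. Values are log relative Renilla luminescence (log base and reference not stated). Single-pass screen; 2080 natural products library.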
row,Structure (SMILES),log
1,CC1(C)CC[C@]2(C(=O)O)CC[C@]3(C)C(=CC[C@@H]4[C@@]5(C)CC[C@H](O)C(C)(C)[C@@H]5CC[C@]43C)[C@@H]2C1 [Oleanolic acid],0.452
2,CC1=CC[C@@]23CC[C@@H]([C@@](C)(/C=C/C=C(\C)C(=O)O)OC2=O)[C@@]3(O)CC1 [Deacetylpseudolaric acid A],-0.222
3,C=C(C)[C@@H]1CC[C@]2(C(=O)OC)CC[C@]3(CO)[C@H](CC[C@@H]4[C@@]5(C)CC[C@@H](OC(C)=O)C(C)(C)[C@@H]5CC[C@]43C)[C@@H]12 [3-Acetoxy-27-hydroxy-20(29)-lupen-28-oic acid methyl ester],-0.445
4,C=C1C(=O)O[C@@H]2C[C@@H]3[C@]4(CC[C@]5(C)[C@@H]([C@H](C)CC/C=C(\C)C=O)CC[C@@]35C)C[C@]4(CCC(=O)O)[C@H]12 [Coronalolide],0.102
5,CC(=O)O[C@H]1CC[C@]2(C)[C@H]3CC[C@@]4(C)[C@@H]5[C@@H](C)[C@H](C)CC[C@]5(C)CC[C@]4(C)C3=CC[C@H]2C1(C)C [Bauerenol acetate],0.134
6,C=C(C)[C@@H]1CC[C@@H]2C(=CC[C@]3(C)C(=O)CC[C@@]23C)[C@@]1(C)CCC(=O)O [Micranoic acid A],-0.0849
7,COC(=O)C1=CCC[C@@H]2[C@@](C)(CCC3=CC(=O)OC3)[C@H](C)CC[C@@]12C [Clerodermic acid methyl ester],0.085
8,COc1ccc(-c2cc(=O)c3c(OC(C)=O)c(C)c(OC)c(C)c3o2)cc1 [Eucalyptin acetate],-0.309
9,COc1cc(O)cc(/C=C/c2ccccc2)c1 [(E)-3-Hydroxy-5-methoxystilbene],0.111
10,COc1cc(C2Oc3c(OC)cc(/C=C/CO)cc3C2CO)ccc1O (centres undefined) [Dehydrodiconiferyl alcohol],0.171
11,C=C1C(=O)O[C@@H]2[C@H]3C(C)=CC[C@@H](O)[C@]3(C)CC[C@@H]12 [Santamarine],0.104
12,CCCCCc1cc(=O)c2ccccc2n1C [1-Methyl-2-pentyl-4(1H)-quinolinone],-0.144
13,CC(=O)O[C@H]1C[C@@]2(O)[C@@H](OC(C)=O)[C@@H]3[C@@]4(CO4)[C@@H](OC(C)=O)C[C@H](OC(C)=O)[C@@]3(C)[C@@H](OC(C)=O)[C@H](OC(C)=O)C(=C1C)C2(C)C [1-Hydroxybaccatin I],-0.363
14,C[C@@H]1CO[C@@]2(C[C@@H]1OC(=O)c1ccc(O)cc1)O[C@@H]1C[C@@H](C(=O)O)C[C@H](O)[C@]1(O)C2=O [Glochicoccin D],0.134
15,CC(C)(O)[C@@H]1CC[C@@](C)([C@H]2CC[C@]3(C)[C@@H]2CC[C@@H]2[C@@]4(C)CC[C@@H](O)C(C)(C)[C@@H]4CC[C@]23C)O1 [Cabraleadiol],0.0581
16,C=C1[C@@H](OC(=O)/C=C/c2ccccc2)C[C@H](OC(C)=O)[C@]2(C)[C@@H]1C[C@@H]1CC(=O)C(C)=C([C@@H](OC(C)=O)[C@@H]2OC(C)=O)C1(C)C [2-Deacetoxytaxinine B],-0.0264
17,"CC1(C)C(=O)CC[C@]2(C)[C@@H]1CC[C@@]13C[C@H](CC[C@H]12)[C@](O)(CO)C3 (single isomer, unassigned; ent-3) [ent-3-Oxokaurane-16,17-diol]",-0.0758
18,"CC(=O)OC1CC(C)(OC(C)=O)CC2C1(OC(C)=O)CC1(C)C(OC(C)=O)C3C(OC(=O)c4ccccc4)C(C)CC3(O)C(OC(C)=O)C21C (centres undefined) [5,8,9,10,14-Pentaacetoxy-3-benzoyloxy-15-hydroxypepluane]",-0.166
19,COc1ccc(-c2cc(=O)c3c(O)c(OC)c(O)cc3o2)cc1O [Desmethoxycentaureidin],-0.0669
20,C[C@]1(CO)CCC[C@]2(C)[C@@H]1CC[C@]13C=C(C(=O)O)[C@H](CC[C@H]12)C3 [Pseudolaric acid D],-0.308
21,C=C1C(=O)O[C@H]2C[C@H](C)C(C(CC(C)=O)OC(C)=O)=CC[C@H]12 (some centres undefined) [Xanthinin],0.322
22,C=C1CCCc2c(ccc3c2C(=O)C(=O)c2c(C)coc2-3)/C(C)=C/CCc2c1ccc1c2C(=O)C(=O)c2c(C)coc2-1 [Neoprzewaquinone A],-0.0547
23,CC1=CCC[C@H]2[C@@]1(C)[C@@H](OC(=O)c1cccnc1)[C@H](OC(=O)c1ccccc1)[C@](C)(O)[C@]2(C)/C=C/C1=CC(=O)OC1 [Scutebarbatine B],0.0647
24,CCCCCCCCCCCCCCCCCCCCCCC(O)C(=O)OCC (centres undefined) [2-Hydroxytetracosanoic acid ethyl ester],-0.0654
25,O=Cc1cc(O)c2[nH]c3ccc(O)cc3c2c1 [Clausine Z],-0.566
26,COc1ccc(-c2cc(=O)c3c(O)c(OC)c(OC)cc3o2)cc1O [Eupatorin],0.129
27,CC[C@H](C)C(=O)N[C@H]1CCCN1C(=O)/C=C/c1ccccc1 [Odorine],9.38e-05
28,COc1cc(C(=O)O)ccc1O [Vanillic acid],-0.163
29,O=c1oc2c(O)c(O)cc3c(=O)oc4c(O)c(O)cc1c4c23 [Ellagic acid],0.0838

# Looked up above.
# Value of O=c1oc2c(O)c(O)cc3c(=O)oc4c(O)c(O)cc1c4c23 [Ellagic acid] under log: 0.0838
# Value of CCCCCc1cc(=O)c2ccccc2n1C [1-Methyl-2-pentyl-4(1H)-quinolinone] under log: -0.144
